From the supplement of paper PMC11732987, “Enantioselective OTUD7B fragment discovery through chemoproteomics screening and high-throughput optimisation” (Communications Chemistry, 2025)
The list shows a part of the results. The data scatter; read single values as rough.

Sequences of proteins named here, by UniProt entry; tags and fusion partners are left off. A change or cut given only in a name is not applied to a line headed by its entry.
UniProt Q9P1Y6: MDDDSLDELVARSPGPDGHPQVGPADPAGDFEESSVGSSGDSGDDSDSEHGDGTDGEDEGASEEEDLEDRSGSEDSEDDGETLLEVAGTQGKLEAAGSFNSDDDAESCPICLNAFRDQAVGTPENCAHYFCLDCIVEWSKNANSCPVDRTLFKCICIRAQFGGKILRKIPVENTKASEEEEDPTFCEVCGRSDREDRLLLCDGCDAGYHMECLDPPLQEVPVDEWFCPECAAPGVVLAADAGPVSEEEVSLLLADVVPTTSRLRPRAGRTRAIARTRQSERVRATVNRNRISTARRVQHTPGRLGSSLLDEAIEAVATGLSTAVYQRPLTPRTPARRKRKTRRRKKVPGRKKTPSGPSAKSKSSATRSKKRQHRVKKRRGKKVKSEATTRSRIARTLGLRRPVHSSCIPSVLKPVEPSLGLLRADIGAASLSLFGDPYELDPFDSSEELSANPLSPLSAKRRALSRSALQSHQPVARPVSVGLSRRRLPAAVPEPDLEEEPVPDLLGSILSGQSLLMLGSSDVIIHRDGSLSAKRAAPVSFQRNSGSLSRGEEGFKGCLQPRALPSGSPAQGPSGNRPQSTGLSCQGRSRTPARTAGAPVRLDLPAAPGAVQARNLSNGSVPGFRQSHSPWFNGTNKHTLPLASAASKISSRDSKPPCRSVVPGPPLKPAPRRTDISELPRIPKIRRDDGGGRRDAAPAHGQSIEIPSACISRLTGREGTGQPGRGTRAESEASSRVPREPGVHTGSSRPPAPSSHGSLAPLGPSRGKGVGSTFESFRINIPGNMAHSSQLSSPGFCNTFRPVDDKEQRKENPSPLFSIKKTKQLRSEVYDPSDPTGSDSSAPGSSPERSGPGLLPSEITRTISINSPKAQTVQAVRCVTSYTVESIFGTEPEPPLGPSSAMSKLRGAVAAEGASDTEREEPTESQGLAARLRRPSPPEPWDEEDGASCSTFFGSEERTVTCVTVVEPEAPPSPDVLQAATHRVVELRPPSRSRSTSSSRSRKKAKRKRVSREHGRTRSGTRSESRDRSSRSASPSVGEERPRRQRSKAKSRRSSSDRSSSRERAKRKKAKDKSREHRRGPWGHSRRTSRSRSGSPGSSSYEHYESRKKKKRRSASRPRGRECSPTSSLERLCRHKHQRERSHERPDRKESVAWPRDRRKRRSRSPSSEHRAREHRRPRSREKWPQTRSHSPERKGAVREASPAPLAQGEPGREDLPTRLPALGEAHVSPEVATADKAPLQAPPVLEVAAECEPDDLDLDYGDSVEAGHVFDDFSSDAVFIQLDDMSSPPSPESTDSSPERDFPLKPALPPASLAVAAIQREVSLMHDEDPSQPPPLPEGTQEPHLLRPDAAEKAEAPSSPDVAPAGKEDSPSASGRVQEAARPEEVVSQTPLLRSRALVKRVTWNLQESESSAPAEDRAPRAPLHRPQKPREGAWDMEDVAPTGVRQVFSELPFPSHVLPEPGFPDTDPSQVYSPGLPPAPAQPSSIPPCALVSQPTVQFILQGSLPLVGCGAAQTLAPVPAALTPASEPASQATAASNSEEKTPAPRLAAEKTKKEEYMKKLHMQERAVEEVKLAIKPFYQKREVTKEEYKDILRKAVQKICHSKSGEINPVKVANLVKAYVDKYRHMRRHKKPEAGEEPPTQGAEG

molecular target: T1, PHRF1 C962 (UniProt Q9P1Y6); assay: log2 mean competition ratio of IA-DTB cysteine labelling (DMSO/compound) (log2 ratio); higher = stronger cysteine engagement by compound; conditions: 50 µM; treatment time: 4 h; cell line lysate: HEK293T
T1 sequence (whole entry): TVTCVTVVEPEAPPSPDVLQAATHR
Procedure: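 IA-DTB competitive cysteine chemoproteomics in HEK293T RIPA lysate. Lysates were treated with compound 29 or 30 at 50 or 200 µM for 4 h, then IA-DTB (500 µM, 1 h), trypsin-digested, NeutrAvidin-enriched and analysed by diaPASEF. Competition ratio = intensity DMSO / intensity compound (n=4 treated, n=64 DMSO); binding: mean log2 CR ≥ 1 and p ≤ 0.05 plus QC filters. Target is the cysteine site.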

SMILES | log2 mean competition ratio
O=C(CCl)N[C@H]1CCCc2ccccc21 | 0.324
O=C(CCl)N[C@@H]1CCCc2ccccc21 | -0.0865

same assay, conditions: 200 µM; treatment time: 4 h; cell line lysate: HEK293T

SMILES | log2 mean competition ratio
O=C(CCl)N[C@H]1CCCc2ccccc21 | 0.0524
O=C(CCl)N[C@@H]1CCCc2ccccc21 | 0.757
